Results are given in words; binding and its absence hold for the method and conditions named. In cells and extracts the contact can be indirect. Some results given as binding are weak or reduced against the parent protein; the word gives no strength.
How the values were obtained:
[1] = molecular target: HSP27 (human (endogenous; the cell line of this experiment is not given)) (UniProt P04792); experiment: co-IP; immuno-precipitates of endogenous HSP90, GRP78, HSP70 or HSP27 from cells expressing only endogenous levels; cells treated with vehicle, OSU-03012, pazopanib or AR-13; blots of co-precipitating proteins
[2] = molecular target: GRP78 (human (endogenous; the cell line of this experiment is not given)) (UniProt P11021); experiment: as above
[3] = molecular target: c-MYC (human (endogenous in GBM12)) (UniProt P01106); experiment: co-IP; GBM12 cells treated with vehicle or [OSU-03012 (2.0 uM) + sildenafil (2.0 uM)] for 30 min, lysed; immuno-precipitation for c-MYC or for HSPH1/p105, SDS PAGE and western blotting
[4] = molecular target: HSPH1/p105 (human (endogenous in GBM12)) (UniProt Q92598); experiment: as above

Amino acid sequences for entries named in this document (tags omitted). Residues count along the entry.
UniProt P04792: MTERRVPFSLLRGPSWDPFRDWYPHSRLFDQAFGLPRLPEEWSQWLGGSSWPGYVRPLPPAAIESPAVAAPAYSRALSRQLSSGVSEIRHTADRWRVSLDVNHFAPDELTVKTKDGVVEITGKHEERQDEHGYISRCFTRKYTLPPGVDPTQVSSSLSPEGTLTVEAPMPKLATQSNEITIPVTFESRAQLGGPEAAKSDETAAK
UniProt P11021, residues 19-654: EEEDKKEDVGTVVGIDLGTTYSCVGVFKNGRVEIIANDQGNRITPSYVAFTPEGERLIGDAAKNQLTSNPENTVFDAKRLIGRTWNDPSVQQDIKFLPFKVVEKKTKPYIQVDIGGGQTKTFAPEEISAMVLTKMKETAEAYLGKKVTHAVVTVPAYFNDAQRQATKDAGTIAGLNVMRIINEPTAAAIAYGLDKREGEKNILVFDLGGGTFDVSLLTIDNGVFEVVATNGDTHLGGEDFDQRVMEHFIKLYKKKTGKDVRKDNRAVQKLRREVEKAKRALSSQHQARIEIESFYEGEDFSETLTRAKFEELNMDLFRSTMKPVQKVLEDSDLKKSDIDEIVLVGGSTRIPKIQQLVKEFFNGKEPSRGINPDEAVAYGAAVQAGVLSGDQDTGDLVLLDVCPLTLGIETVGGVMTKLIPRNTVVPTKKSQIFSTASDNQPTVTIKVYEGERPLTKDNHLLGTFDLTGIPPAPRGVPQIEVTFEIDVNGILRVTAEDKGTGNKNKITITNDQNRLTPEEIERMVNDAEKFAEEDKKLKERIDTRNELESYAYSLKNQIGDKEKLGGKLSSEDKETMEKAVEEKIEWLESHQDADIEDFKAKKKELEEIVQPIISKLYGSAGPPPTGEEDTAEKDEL
UniProt P01106: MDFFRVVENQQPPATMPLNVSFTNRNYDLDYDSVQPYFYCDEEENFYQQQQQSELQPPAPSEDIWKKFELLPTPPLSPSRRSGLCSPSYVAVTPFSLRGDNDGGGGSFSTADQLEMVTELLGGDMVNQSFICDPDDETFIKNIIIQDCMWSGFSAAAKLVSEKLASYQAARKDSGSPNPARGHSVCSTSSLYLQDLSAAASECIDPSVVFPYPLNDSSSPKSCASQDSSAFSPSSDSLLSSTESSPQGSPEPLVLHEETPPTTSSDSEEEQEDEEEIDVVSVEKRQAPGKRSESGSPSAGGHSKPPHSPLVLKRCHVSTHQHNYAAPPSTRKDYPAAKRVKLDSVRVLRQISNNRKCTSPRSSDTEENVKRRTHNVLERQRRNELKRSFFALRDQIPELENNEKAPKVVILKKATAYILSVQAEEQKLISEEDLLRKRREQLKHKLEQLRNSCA
UniProt Q92598: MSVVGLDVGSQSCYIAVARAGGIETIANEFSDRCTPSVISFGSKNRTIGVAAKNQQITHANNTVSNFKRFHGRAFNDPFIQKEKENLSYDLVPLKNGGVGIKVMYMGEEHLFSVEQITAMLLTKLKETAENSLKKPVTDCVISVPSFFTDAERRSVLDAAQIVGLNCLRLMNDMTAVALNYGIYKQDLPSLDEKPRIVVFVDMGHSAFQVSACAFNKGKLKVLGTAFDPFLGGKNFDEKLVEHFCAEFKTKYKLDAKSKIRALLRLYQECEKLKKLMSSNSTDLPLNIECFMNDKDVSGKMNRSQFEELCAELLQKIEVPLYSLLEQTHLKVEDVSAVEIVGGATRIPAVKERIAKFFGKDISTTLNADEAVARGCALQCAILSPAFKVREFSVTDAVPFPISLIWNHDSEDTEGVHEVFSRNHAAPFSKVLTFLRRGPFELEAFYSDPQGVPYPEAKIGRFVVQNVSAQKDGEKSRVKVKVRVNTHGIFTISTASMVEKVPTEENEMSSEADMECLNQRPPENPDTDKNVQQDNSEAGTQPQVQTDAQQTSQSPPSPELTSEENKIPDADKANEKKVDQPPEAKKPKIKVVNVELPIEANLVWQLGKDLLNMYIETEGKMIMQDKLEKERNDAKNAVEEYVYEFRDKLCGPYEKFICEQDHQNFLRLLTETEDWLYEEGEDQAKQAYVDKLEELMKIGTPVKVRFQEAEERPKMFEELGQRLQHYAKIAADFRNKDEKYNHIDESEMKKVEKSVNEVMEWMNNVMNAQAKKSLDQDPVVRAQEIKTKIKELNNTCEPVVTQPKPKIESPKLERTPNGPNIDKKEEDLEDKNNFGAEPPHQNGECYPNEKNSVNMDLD

Substance: GRP78 (from UniProt P11021 19-654)
- binding [1]: binds

Substance: HSP27 (from UniProt P04792 1-205)
- binding [2]: binds

Substance: HSPH1/p105 (from UniProt Q92598 1-858)
- binding [3]: binds

Substance: c-MYC (from UniProt P01106 1-454)
- binding [4]: binds
